The record followed here is article PMC7609059.

The target in the assay is T1, FLAG-tagged version of the 80 C-terminal aa of Atg43 (aa 165-244) (S. pombe) (UniProt O13709).
T1 sequence: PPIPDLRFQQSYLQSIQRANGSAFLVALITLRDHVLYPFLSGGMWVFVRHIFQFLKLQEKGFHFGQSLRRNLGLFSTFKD
In words: affinity purification with mass spectrometry.

No constants are given. Whether binding was seen depends on the method and setting. In cells and extracts the contact can be indirect. Here binding means that the protein was enriched with, or labelled near, the bait; the list need not be complete. Where a sequence is shown, tags or fusion partners need not be part of it.

B1: Mim2 (endogenous) (protein, UniProt G2TRP0 1-72)
chain: MAEVLDLEIDPISDGEDDTYSSELDDDLKDSIEQLERVLCLVVFPLLGKFLGRKFAFHAWARWLERRRLVSN
Turning to B1, the binding entry is on record as “binds”.
